Results are given in words; binding and its absence hold for the method and conditions named. Binding calls can cover weak binding; strength is not graded here.
B1: ME06F2HL (scFv)
scFv: EVQLLEQSGAELMKPGASVKISCKATGYTFSNYWIGWVKQRPGHGLEWIGDIYPGGSYTNYNEKFKGKVTLTADTSSRTAYMQLSSLTFEDSAIYYCARSGYDYASDYDYHGMDYWGQGTTVTVSSGGGGSGGGGSGGGGSELVLTQSPSSMSASLGDRITITCQATQDIVKNLNWYQQKPGKPPSFLIYYATELAEGVPSRFSGSGSGSDYSLTISNLESEDFADYYCLQFYEFPYTFGGGTKLEIKTGDYKDDDDKHHHHHH
notes: murine anti-c-MET scFv; E. coli periplasmic preparation
B2: ME06E10HL (scFv)
scFv: EVQLLEQSGADLVRPGTSVKLSCKAAGYTFSRYWISWIRQRPGHGLEWIGEIYPGGGYGNYNENFKDKVTLTADTSSSTAYMQLSSLTSEDSAIYYCARSGYDYGSKYDYYGLDYWGQGTTVTVSSGGGGSGGGGSGGGGSELVMTQSPSSLSASLGERVSLTCRASQEISGYLSWLQQKPDGTIKRLIYAASTLDSGVPKRFSGSRSGSDYSLTISSLESEDFADYYCLQYASSPYTFGGGTKLEIKTGDYKDDDDKHHHHHH
notes: as for B1
B3: ME06D2HL (scFv)
scFv: EVQLLEQSGADLVRPGTSVKLSCKAAGYTFSRYWISWIRQRPGHGLEWIGEIYPGGGYGNYNENFKDKVTLTADTSSSTAYMQLSSLTSEDSAIYYCARSGYDYGSKYDYYGLDYWGQGTTVTVSSGGGGSGGGGSGGGGSELVMTQSPSSMYASLGERVTITCKASQDINSYLSWFQQKPGKSPKTLIYRANRLVDGVPSRFSGSGSGQDYSLTISSLEYEDMGIYYCLQYDAFPPTFGAGTKLEIKTGDYKDDDDKHHHHHH
notes: as for B1
B4: ME06D1HL (scFv)
scFv: EVQLLEQSGAEVVRPGTSVKMSCKAAGYTFTKYWIGWVKQRPGHGLEWIGDIHPGGGFANYNEKFKGKATLTADTSSSTAYMQLSRLTSDDSAIYYCARSGYDYGSSYDYHGMDYWGQGTTVTVSSGGGGSGGGGSGGGGSELVMTQSPSSLTVTAGEKVTMSCKSSQSLLNSGNQKNYLAWYQQKPGQPPKLLIYGASTRESGVPDRFTGSGSGTDFTLTISSVQAEDLADYFCQQHYSTPYTFGGGTKLEIKTGDYKDDDDKHHHHHH
notes: as for B1
B5: ME06C7HL (scFv)
scFv: EVQLLEQSGAEVVRPGTSVKMSCKAAGYTFTKYWIGWVKQRPGHGLEWIGDIHPGGGFANYNEKFKGKATLTADTSSSTAYMQLSRLTSDDSAIYYCARSGYDYGSSYDYHGMDYWGQGTTVTVSSGGGGSGGGGSGGGGSELQMTQSPTSLAVSLGQRATISCRASQTVYYDGNNYMNWYQHKPGQPPKLLIYATSNLESGIPARFSGSGSGTDFTLNIHPVEAEDAATYYCQQSYEDPYTFGGGTKLEIKTGDYKDDDDKHHHHHH
notes: as for B1
B6: ME06C6HL (scFv)
scFv: EVQLLEQSGAELVRPGTSVKIPCKATGYTFSYYWIGWVKQRPGHGLEWIGDIYPGGGYSNYNEKFKGKATLTADTSSSTAYMQLSGLTSEDSAIYYCARSGYDYGSDYDYHGLDYWGQGTTVTVSSGGGGSGGGGSGGGGSELVLTQSPASLAVSLGQRATISCRASESVEYYGTSLMQWYQQKPGQPPKLLIYAASNVESGVPARFSGSGSGTDFSLNIHPVEEDDIAMYFCQQSRKVPYTFGGGTKLEIKTGDYKDDDDKHHHHHH
notes: as for B1
B7: ME06B7HL (scFv)
scFv: EVQLLEQSGAELVRPGTSVKISCKATGYTFTTYWLGWVKQRPGHGLEWIGEIHPGGGYTNYNEKFKGKATLTADTSSSTAYMQLSRLTSDDSAIYYCARSGYDYGSSYDYYGMDYWGQGTTVTVSSGGGGSGGGGSGGGGSELVMTQSPSSLSASLGERVSLTCRASQDIGSSLNWLQQEPDGTIKRLIYATSSLDSGVPKRFSGSRSGSDYSLTISSLESEDFVDYYCLQYASSPYTFGGGTKLEIKTGDYKDDDDKHHHHHH
notes: as for B1
B8: ME05F6HL (scFv)
scFv: EVQLLEQSGAEVVRPGTSVKMSCKAAGYTFTKYWIGWVKQRPGHGLEWIGDIHPGGGFANYNEKFKGKATLTADTSSSTAYMQLSRLTSDDSAIYYCARSGYDYGSSYDYHGMDYWGQGTTVTVSSGGGGSGGGGSGGGGSELVMTQSPSSLSASLGERVSLTCRASQEISGYLSWLQQKPDGTIKRLIYAASTLDSGVPKRFSGSRSGSDYSLTISSLESEDFADYYCLQYASYPPTFGGGTKLEIKTGDYKDDDDKHHHHHH
notes: as for B1
B9: ME05B7HL (scFv)
scFv: EVQLLEQSGAELVRPGTSVKISCKTTGYTFGYYWISWLKQRPGHGLEWIGDIYPGGGYTNYHEKFKGKVTLTADTSSRTAYMQLSSLTFEDSAIYYCARSGYDYGSDYDYHGMDYWGQGTTVTVSSGGGGSGGGGSGGGGSELVMTQTPSSLSASLGDRVTISCRASQGISNYLNWYQQKPDGSVKLLIYYTSRLHSGVPSRFSGSGSGTDYSLTISNLDQEDIATYFCQQGNTLPWTFGGGTKLEIKTGDYKDDDDKHHHHHH
notes: as for B1
B10: ME99B1HL (scFv)
scFv: EVQLLEQSGAELVRPGTSVKISCKATGYTFSNYWISWVKYRPGHGLEWIGDIYPGGSYTNYNEKFKGKVTLTADTSSRTAYMQLSGLTFEDSAIYYCARSGYDYGSDYDYHGMDYWGQGTTVTVSSGGGGSGGGGSGGGGSELQMTQSPASLSASVGETVTITCRASENIYSNLAWYQQKQGKSPQLLVYAATNLADGVPSRFSGSRSGSDYSLTISSLESEDFVDYYCLQYASYPYTFGGGTKLEIKTGDYKDDDDKHHHHHH
notes: as for B1
B11: ME75H6HL (scFv)
scFv: EVQLLEQSGAELVRPGTSVKMSCKAAGYTFTKYWIGWVKQRPGHGLEWIGDIHPGGGYANYNEKFKGKATLTADTSSSTAYMQLSRLTSDDSAIYYCARSGYDYGSSYDYHGMDFWGQGTTVTVSSGGGGSGGGGSGGGGSELQMTQSPASLSASVGEPVTFTCRASENIYSYLAWYQQKQGKSPQLLIYGATNLADGMSSRFSGSGSGRQYSLKISSLHPDDVATYYCQNVLSTPYTFGGGTKLEIKTGDYKDDDDKHHHHHH
notes: as for B1

Each binder was assayed against human c-MET (extracellular domains fused to a truncated variant of human EpCAM) (human) (assay: FACS, CHO transfectants, periplasmic preparation).

binding, binds:
B1
B2
B3
B4
B5
B6
B7
B8
B9
B10
B11
